For at least one compound, name, drawing or mass did not settle the structure.
Columns and labels:
[1] = test system: X12T glioma xenografts; test: Stress-induced NKG2DL expression after TMZ exposure (flow cytometry); assay type: cell-based, human; settings: 400 μM TMZ for 4 hours; X12T expresses MIC-A, ULBP-1 and ULBP-4
[2] = test system: X22T glioma xenografts; test: as above; assay type: cell-based, human; settings: 400 μM TMZ for 4 hours; X22T expresses MIC-A, MIC-B, ULBP-1 and ULBP-4

SMILES: Cn1nnc2c(C(N)=O)ncn2c1=O [TMZ, temozolomide]
- upregulation of NKG2DL expression [1]: minimal upregulation
- upregulation of NKG2DL expression [2]: upregulation of MIC-A and ULBP-4

Reference: patent publication US12005078B2, “Genetically engineered drug resistant T cells and methods of using the same” (The UAB Research Foundation, priority 2015, dated 2024)
